Measurements taken from patent US20240293422A1, “SHP2 AND CDK4/6 INHIBITORS COMBINATION THERAPIES FOR THE TREATMENT OF CANCER” (Erasca, Inc., priority 2021, published 2024).
Some results were stated once for a whole list of compounds, not compound by compound.

Test: Body weight change and tolerability in A549 xenograft study
Format: in vivo, Female Balb/c nude mice
Conditions: 28 days oral; both Formula I monotherapy groups (10 mg/kg BID, 30 mg/kg QD) and both combination groups
Experimental: Treatment: Treatment started on the day of randomization. The treatment start day was denoted as treatment day 0. Mice were dosed by oral administration of vehicle control solution, the compound of Formula I at 10 mg/kg/dose BID, the compound of Formula I at 30 mg/kg QD, or palbociclib at 25 mg/kg QD monotherapy treatment groups. Two additional groups received combination treatment of the compound of Formula I and palbociclib, one dosing the compound of Formula I at 10 mg/kg/dose BID with palbociclib at 25 mg/kg QD and the other dosing the compound of Formula I at 30 mg/kg QD with palbociclib at 25 mg/kg QD. The dosing volume for each compound was 5 mL/kg and interval of BID regimen was 8 hours. Palbociclib was dosed at one-hour post the compound of Formula I QD or first BID dose in combination groups. […]
Measurements and calculations: Conditions of animal health and clinical signs of toxicity were monitored daily. Subcutaneous tumor volumes and mouse body weights were measured twice a week by caliper and balance, respectively. Tumor volume, percent of tumor growth inhibition (% TGI), percent of tumor regression, percent of body weight change (% BWC), and treatment related body weight loss (% trBWL) were calculated based on following formulas: […]
Percentage of treatment related body weight loss at treatment day x (% trBWLdx) was calculated based on the following: • iii. […]

In the case of `COCOC[C@H]1C[C@H]2COc3c(Sc4cnc(N5CCC6(CC5)CO[C@@H](C)[C@H]6N)c(CO)n4)ccnc3N2C1` [compound of Formula I, (3-((3S,4S)-4-amino-3-methyl-2-oxa-8-azaspiro[4.5]decan-8-yl)-6-(((6aS,8S)-8-((methoxymethoxy)methyl)-6a,7,8,9-tetrahydro-6H-pyrido[3,2-b]pyrrolo[1,2-d] [1,4]oxazin-4-yl)thio)pyrazin-2-yl)methanol], the “maximum trBWL” value is reported as no more than 8%.
